# Reference: publication PMC11835620
# Chains of the proteins cited; added tags and fusions are not shown.
# UniProt P06730, whole entry: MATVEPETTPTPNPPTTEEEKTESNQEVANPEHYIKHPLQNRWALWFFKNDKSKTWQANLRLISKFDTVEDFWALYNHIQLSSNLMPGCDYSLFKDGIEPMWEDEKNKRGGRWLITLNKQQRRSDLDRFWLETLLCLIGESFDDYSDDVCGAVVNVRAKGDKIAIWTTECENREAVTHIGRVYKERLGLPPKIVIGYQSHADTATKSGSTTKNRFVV
# Construct, isoform or probe ends are uncertain for at least one entry. Weaker means in comparison with the reference protein, sequence or condition of that experiment.
# Molecular target: eIF4E (human) (UniProt P06730)
# Experiment: EMSA
# Settings: KD measured but printed only in the figure, lower affinity than AG 3'OH; 5' cap m7G(3'OMe)pppm6A(2'OMe)G; A1 is N6,2'-O-dimethyl; cap m7G not in strand; EMSA: 25 nM oligo, eIF4E 5 nM to 1.5 uM (2-fold dilutions), 100 mM NaCl, temperature not given; recombinant protein
sequence,measurement,value
AGGAAAUAAGAGAGAAAAGAAGAGUAAGAAGAAAUAUAAGAGC [M6 3'OMe cap 43-mer],binding result,binds more weakly
